Assay results: PubChem BioAssay AID540256 (National Center for Advancing Translational Sciences (NCATS), 2011)
In all, about 300,000 compounds went through this assay and about 3,700 (1.2%) were called active. This list was built around the results that the source calls inconclusive (neither active nor inactive); the mix of calls is not that of the screen. Calls follow the shape of the full dose curve; tested in HEK293 cells. A potency beside an inconclusive call is a rough fit, not a confirmed value.

Assay: qHTS for Inhibitors of binding or entry into cells for Lassa Virus; also: nearly all actives have a fitted effect of over 50% in size
Conditions: Lassa virus pseudotype entry inhibition, cell reporter; series mostly up to 37.9 µM
Potency is read from the fitted curve at half-maximal effect.

Structure (SMILES)	Potency
CN(C(=O)CCCN1CCCC1=O)C1CCCN(Cc2ccccc2F)C1 (centres undefined)	inactive
C=CCN1CCN(C(=O)c2c(-c3ccccc3)noc2C)CC1	inactive
Cc1cccnc1NC1OC(=O)c2ccccc21 (centres undefined)	inactive
COc1ccc(NC(=O)/C=C/c2cccc(Br)c2)cn1	inconclusive: 5.62 µM [inhibitor, single point]
CCOc1ccc(CNC(=O)c2ccc(Sc3ccc(Cl)cc3)c(NC(C)=O)c2)cc1OC	inconclusive: 35.5 µM [inhibitor, single point]
Cc1ccc(CC2SC(=Nc3ccccc3)N(c3ccccc3)C2=O)cc1 (centres undefined)	inconclusive: 9.2 µM [inhibitor, partial curve, poor fit]
O=C1CN(C(=O)c2ccc(Cl)c(S(=O)(=O)N3CCc4ccccc43)c2)c2ccccc2N1	inconclusive: 35.5 µM [inhibitor, single point]
Cc1onc(-c2ccccc2Cl)c1C(=O)Nc1sc2c(c1C#N)CCC2	inactive
Cc1ccccc1CN1[C@@H](CC(C)C)COc2c(Cl)cccc2S1(=O)=O	inconclusive: 5.6 µM [activator, single point]
CCOC(=O)CSc1nc2ccc(NC(=O)c3ccccc3F)cc2s1	inconclusive: 7.08 µM [activator, partial curve]
O=C(NCc1cccnc1)c1cccc(S(=O)(=O)N2CCCCC2)c1	inactive
CCCOc1ccc(/C=C2/C(=O)ON=C2C)cc1OCC	inactive
CCC(C)Sc1nc2c(c(=O)[nH]c(=O)n2C)n1CCc1ccccc1 (centres undefined)	inconclusive: 20 µM [inhibitor, single point]
COC(=O)c1ccc2c(=O)n(CCCCCC(=O)N3CCN(c4ccc(OC)cc4)CC3)c(=O)[nH]c2c1	inactive
COc1cccc(N(C(=O)c2nc3nccc(C)n3n2)c2nc3ccccc3s2)c1	inconclusive: 31.6 µM [inhibitor, single point]
COC(=O)C1=C(N)N(c2ccccc2C(F)(F)F)C2=C(C(=O)CCC2)C1c1ccc2c(c1)OCO2 (centres undefined)	inactive
Cc1ccc(NC(=O)C2CCCN(S(=O)(=O)c3cccc4cccnc34)C2)c(C)c1 (centres undefined)	inconclusive: 6.31 µM [inhibitor, single point]
CCOC(=O)c1c(-c2ccccc2)csc1NC(=O)c1cc(-c2ccc(Cl)cc2)on1	inactive
CC1=C(C(=O)Nc2ccc(C)cc2C)C(c2ccccc2)n2ncc(C(=O)Nc3ccccc3)c2N1 (centres undefined)	inconclusive: 12.6 µM [inhibitor, single point]
Cc1ccc(-c2nnc3sc(-c4ccncc4)nn23)cc1	inactive
CC1CCN(S(=O)(=O)c2ccc(C(=O)OC(C)C(=O)N(C)C3CCCCC3)cc2)CC1 (centres undefined)	inactive
CCOP(=O)(OCC)C(NC(=O)Cc1ccccc1)C(Cl)(Cl)Cl (centres undefined)	inconclusive: 35.5 µM [activator, partial curve, poor fit]

A different layout for part of the listing above:

| Structure (SMILES) | Potency |
| --- | --- |
| Cc1onc(-c2ccccc2Cl)c1C(=O)Nc1sc2c(c1C#N)CCC2 | inactive |
| Cc1ccccc1CN1[C@@H](CC(C)C)COc2c(Cl)cccc2S1(=O)=O | inconclusive: 5.6 µM [activator, single point] |
| CCOC(=O)CSc1nc2ccc(NC(=O)c3ccccc3F)cc2s1 | inconclusive: 7.08 µM [activator, partial curve] |

Further structures:

Structure (SMILES)	Potency
CCN(c1ccccc1)S(=O)(=O)c1cccc(C(=O)OCC(=O)Nc2ccc(NC(C)=O)cc2)c1	inactive
Cc1ccccc1-c1nc2cc(NC(=O)COc3ccc(F)cc3)ccc2o1	inconclusive: 2.82 µM [activator, full curve, poor fit]
COc1cc(OC)cc(C(=O)N2CCC(C(=O)Nc3ccc4c(c3)OCCO4)CC2)c1	inconclusive: 10 µM [inhibitor, partial curve, poor fit]
O=C(NC1CC(=O)N(c2ccc(F)cc2)C1)C(=O)c1c[nH]c2ccccc12 (centres undefined)	inconclusive: 0.282 µM [activator, full curve, poor fit]
Cc1c(C(=O)N2CCN(S(=O)(=O)c3ccccc3)CC2)oc2ccc(Br)cc12	inconclusive: 12.6 µM [inhibitor, partial curve, poor fit]
COC(=O)Nc1ccc(S(=O)(=O)N2CCCC(C(=O)N3CCCCC3)C2)cc1 (centres undefined)	inconclusive: 22.4 µM [inhibitor, partial curve, poor fit]
CCCn1c(=S)[nH]c2cc(C(=O)N3CCN(C4CCCCC4)CC3)ccc2c1=O	inactive
CS(=O)(=O)N1CCN(c2nc3ccc(Cl)cc3s2)CC1	inconclusive: 11.2 µM [activator, partial curve, poor fit]
CCOc1cc(C2c3c(-c4ccc(Br)cc4)n[nH]c3C(=O)N2c2ccc(Cl)cc2)ccc1O (centres undefined)	inconclusive: 12.6 µM [inhibitor, partial curve, poor fit]
Cc1ccc(O)c(N=Nc2ccccc2)n1	inconclusive: 0.517 µM [activator, full curve]
COc1ccc(F)c(CN2CCC(n3nccc3NC(=O)C3CCOC3)CC2)c1 (centres undefined)	inconclusive: 31.6 µM [activator, partial curve, poor fit]
CCOC(=O)C1CCCN(Cc2cc(=O)oc3cc(C)c(C)cc23)C1 (centres undefined)	inactive
Cc1sc(NC(=O)c2ccco2)nc1-c1ccccc1	inconclusive: 0.708 µM [activator, single point]
CN(CC1COc2ccccc2O1)c1nc(-c2cccnc2)nc2ccccc12 (centres undefined)	inconclusive: 29.1 µM [inhibitor, single point]
O=C(Nc1nccs1)c1ccc(-c2cccc([N+](=O)[O-])c2)o1	inconclusive: 35.5 µM [inhibitor, partial curve, poor fit]
CCSc1ncc(Cl)c(C(=O)Nc2nc3ccc(OC)cc3s2)n1	inactive
O=C(Nc1cccc(Cl)c1)OCCN1CCN(Cc2ccccc2)CCC1=O	inconclusive: 32.6 µM [inhibitor, single point]
CC(=O)Nc1ccc(N(C(=O)c2ccco2)C(C(=O)NC2CCCCC2)c2ccccc2)cc1 (centres undefined)	inconclusive: 0.562 µM [inhibitor, partial curve, poor fit]
COc1ccc(C(=O)OCC(=O)c2ccc[nH]2)cc1	inactive
CCOC(=O)C1CCN(C(=O)COC(=O)c2c(C)c(CC)nc3ccccc23)CC1	inconclusive: 14.1 µM [inhibitor, single point]
CCOC(=O)C(Cc1ccccc1)C(=O)NCc1ccccc1 (centres undefined)	inactive
CC(=O)Nc1ccc(S(=O)(=O)/N=C2/NC(=O)/C(=C\c3ccco3)S2)cc1	inactive
